Growth estimate data for 64 substances are collected here from the supplement of paper PMC5949888.

Most values lie at the floor of the assay. Slopes are relative: functional sequences can read slightly below zero.

The data set relates to Saccharomyces cerevisiae PS128 hsf1 delta, HSF1(1-493) fusion. As to the kind of experiment: growth estimate (transactivation domain function in HSF1 fusion, heat-shock survival) (a.u. (slope of normalised read count over time)); higher = stronger growth at 37°C, i.e. more transactivation activity. The settings on record: library: random library. As for the experimental part: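 Random 60-nt DNA library encoding peptides of up to 20 aa, fused to the C-terminus of yeast HSF1 residues 1-493 (C-terminal TAD deleted) and expressed from the native HSF1 promoter on a CEN plasmid in hsf1-deleted S. cerevisiae PS128. Cells were selected at 37°C on -trp 5-FOA plates for 0, 2, 4, 6 and 8 days and amplicons were sequenced. Growth estimate is the slope of a robust linear fit of total-sum-normalised read counts (normalised to the first time point) over time, using at least 2 replicates. Sequences are classed functional (TAD activity) above a threshold of -0.13, set from stop-codon control sequences.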
For the substance RSWQTNNRTA, the growth estimate is 0.0138.
With ILMGV the figure was less than -0.25; with NPVAQQAGRFTRRPTGIVKQ, -0.192.
Next, VVTLLSYVYPAVPKLSEGCV: less than -0.25; RFL: less than -0.25; RTRLSSIVGAQMWVWSFRTS: less than -0.25.
Next, NNTRGRTHH: less than -0.25.
For the substance FLVDRTSTHYVMLETRTRAT, the growth estimate is less than -0.25.
With EMRVEDAVGGGPRWPR, the growth estimate is less than -0.25.
In the case of VMAMVNVRGF, the growth estimate is less than -0.25.
Next, DGLGSGTQNSNEAPLESIWP: -0.236.
As to TDYRKIGTVLRNTGN, the growth estimate is less than -0.25.
With RISRVTL, the growth estimate was less than -0.25.
On to QLPYWGCYISCGHAL, for which the growth estimate was less than -0.25.
With TVVRRVLNQSTGRWCCRICV, the growth estimate was less than -0.25.
Regarding NKITWCIL, the growth estimate is less than -0.25.
As for PKSRYQCAQDE, the growth estimate is less than -0.25.
Next, TGYQGYCGTHAHKHLNAWFP: less than -0.25.
With SVSPAQYLTPNDASNS, the growth estimate is less than -0.25.
With EMDHRSVAAVAGVSPEFWWR the figure was -0.231; with SVLRSIFQPIRCKFGPNRPG, less than -0.25.
With TIRGPDAGPSNVSPSFSRTL the figure was less than -0.25.
On to LIPDVSDLRIANRYHIPPSC, for which the growth estimate was less than -0.25.
With SATGSP the figure was less than -0.25; with GGPI, less than -0.25; with QPIVPRTNYGLAVS, -0.243.
Next, KLGGMSSCLKLGAFQVRLRP: less than -0.25.
With KRPIKCVGKSQSRGKFDDSA the figure was less than -0.25.
Regarding SLIELPRGRPSPTS, the growth estimate is less than -0.25.
Next, RGGQRAVMYRCSSVVAADQI: -0.246; HHSVLPMVLPFCGLFFGDSF: less than -0.25.
Next, YAQSAGGGLRTVWRSV: less than -0.25; SWCPYRAPLTAAGAAPCSFA: -0.246; YAPAGGVSIGRTKT: less than -0.25.
With ILIPASLFTPNPAGSGETHC the figure was less than -0.25; with QVTLFEWYLAVPIAPSLTEL, less than -0.25; with PGLKERWRYSLLDGARRAAR, less than -0.25.
VSVGRATKSHICNLRVH: the growth estimate is less than -0.25.
As for VPFLCLEIDKT, the growth estimate is less than -0.25.
With HGTIFHMSAGFWALVDQPMV the figure was less than -0.25; with MGERLVGAASCVHRACSSFA, less than -0.25.
As for RRSRKRNAYIASQFREATGY, the growth estimate is less than -0.25.
Next, NMGSTDCLLNKVSTLKRCPA: less than -0.25; RRWRQG: less than -0.25; RYRIVHGGRTQASRKFGSGP: -0.0124.
With RQNGQWG the figure was less than -0.25.
Next, YNC: less than -0.25; CLSRRKALLRLKHCQSPHCV: less than -0.25.
On to GRGGRAG, for which the growth estimate was less than -0.25.
With TKDLI, the growth estimate was less than -0.25.
With CCDE the figure was less than -0.25.
For the substance GTHLRVHCGGSEMRKTFSLV, the growth estimate was less than -0.25.
Take LWNLCP: the growth estimate is less than -0.25.
Next, VSAAWWVNRVLAGGMLEVTN: less than -0.25; GKFPDAWRNFDSYLDGGVRV: less than -0.25.
Take FGNTTSATQ: the growth estimate is less than -0.25.
With EQGSAQRHGQVLREGPNRAT the figure was less than -0.25; with VSGDPRFPPSRTKLAMVAEL, less than -0.25.
Next, MTRDLGAGTGRMSAK: less than -0.25; LMDCLNVTRVARS: less than -0.25; LATWNCR: less than -0.25.
For LPHPKVV, the growth estimate is less than -0.25.
On to LLLM, for which the growth estimate is less than -0.25.
With ETIH the figure was less than -0.25.
